Laboratory results reported in the NIST ThermoML archive (doi:10.1021/je201140q).
± gives the expanded uncertainty stated by the source.

Details: 298.15 K; 101.3 kPa; Liquid; Vibrating tube method

CCO [ethanol]
mass density: 785.11 ± 0.12 kg/m3
